According to paper PMC6667500:
Results are given in words; binding and its absence hold for the method and conditions named. Binding seen in cells or lysates may run through a third protein. Some results given as binding are weak or reduced against the parent protein; the word gives no strength.

Chains of the proteins cited; added tags and fusions are not shown.
UniProt Q9H583: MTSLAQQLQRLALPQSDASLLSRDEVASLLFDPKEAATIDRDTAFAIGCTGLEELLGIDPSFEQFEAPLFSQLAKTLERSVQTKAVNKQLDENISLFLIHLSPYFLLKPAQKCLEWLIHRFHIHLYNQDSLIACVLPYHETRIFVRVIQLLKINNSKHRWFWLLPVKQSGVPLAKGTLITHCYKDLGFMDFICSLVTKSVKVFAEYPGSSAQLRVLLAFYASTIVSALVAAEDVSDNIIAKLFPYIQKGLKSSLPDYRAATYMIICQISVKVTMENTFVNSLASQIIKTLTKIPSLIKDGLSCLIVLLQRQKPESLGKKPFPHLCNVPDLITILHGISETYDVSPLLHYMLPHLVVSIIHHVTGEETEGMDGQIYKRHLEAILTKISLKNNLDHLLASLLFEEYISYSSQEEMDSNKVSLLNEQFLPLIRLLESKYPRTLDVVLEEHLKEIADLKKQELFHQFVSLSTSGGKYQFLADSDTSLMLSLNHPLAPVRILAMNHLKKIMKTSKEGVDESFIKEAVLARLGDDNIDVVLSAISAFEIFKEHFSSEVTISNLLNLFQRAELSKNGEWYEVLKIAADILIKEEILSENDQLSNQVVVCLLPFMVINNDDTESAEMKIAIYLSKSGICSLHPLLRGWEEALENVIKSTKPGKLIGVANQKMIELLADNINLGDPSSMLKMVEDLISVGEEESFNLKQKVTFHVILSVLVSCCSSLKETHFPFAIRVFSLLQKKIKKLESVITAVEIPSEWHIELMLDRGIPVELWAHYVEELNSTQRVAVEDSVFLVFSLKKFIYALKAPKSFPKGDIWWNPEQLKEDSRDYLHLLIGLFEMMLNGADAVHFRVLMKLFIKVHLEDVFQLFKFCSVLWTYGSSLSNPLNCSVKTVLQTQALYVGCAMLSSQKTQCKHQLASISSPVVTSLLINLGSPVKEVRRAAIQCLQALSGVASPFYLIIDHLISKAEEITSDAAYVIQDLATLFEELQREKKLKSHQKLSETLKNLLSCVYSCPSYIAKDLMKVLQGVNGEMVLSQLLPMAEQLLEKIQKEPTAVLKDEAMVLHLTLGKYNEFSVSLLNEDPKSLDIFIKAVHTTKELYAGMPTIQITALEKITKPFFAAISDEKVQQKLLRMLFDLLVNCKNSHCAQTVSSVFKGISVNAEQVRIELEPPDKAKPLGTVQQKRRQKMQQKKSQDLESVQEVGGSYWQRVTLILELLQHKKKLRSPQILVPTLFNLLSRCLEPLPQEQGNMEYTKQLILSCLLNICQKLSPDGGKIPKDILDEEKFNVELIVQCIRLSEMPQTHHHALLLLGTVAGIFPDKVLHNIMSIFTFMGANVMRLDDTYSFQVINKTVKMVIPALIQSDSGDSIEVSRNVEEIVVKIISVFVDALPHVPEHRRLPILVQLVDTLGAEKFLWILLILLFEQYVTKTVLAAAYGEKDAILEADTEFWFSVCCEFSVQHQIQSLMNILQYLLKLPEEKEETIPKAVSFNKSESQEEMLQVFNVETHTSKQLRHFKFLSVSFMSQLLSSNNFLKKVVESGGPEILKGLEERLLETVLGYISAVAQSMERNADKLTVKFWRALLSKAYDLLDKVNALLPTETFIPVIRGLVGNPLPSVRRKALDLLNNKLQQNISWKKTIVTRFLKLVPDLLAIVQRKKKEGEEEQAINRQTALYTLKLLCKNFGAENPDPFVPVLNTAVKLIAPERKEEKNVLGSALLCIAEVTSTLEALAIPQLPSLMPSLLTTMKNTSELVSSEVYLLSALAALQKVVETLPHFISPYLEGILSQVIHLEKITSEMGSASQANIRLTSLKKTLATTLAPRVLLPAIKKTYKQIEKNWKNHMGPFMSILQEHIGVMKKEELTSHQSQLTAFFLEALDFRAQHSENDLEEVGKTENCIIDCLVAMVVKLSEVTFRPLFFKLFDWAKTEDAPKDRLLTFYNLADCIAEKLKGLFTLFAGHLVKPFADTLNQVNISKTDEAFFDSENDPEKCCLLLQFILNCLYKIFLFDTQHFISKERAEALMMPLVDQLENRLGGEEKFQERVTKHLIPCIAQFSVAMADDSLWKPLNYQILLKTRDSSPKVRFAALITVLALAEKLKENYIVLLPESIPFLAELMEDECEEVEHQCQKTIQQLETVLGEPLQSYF

B1: rRNA 2'-O-methyltransferase fibrillarin (FBL) (protein, UniProt P22087 1-321)
chain: MKPGFSPRGGGFGGRGGFGDRGGRGGRGGFGGGRGRGGGFRGRGRGGGGGGGGGGGGGRGGGGFHSGGNRGRGRGGKRGNQSGKNVMVEPHRHEGVFICRGKEDALVTKNLVPGESVYGEKRVSISEGDDKIEYRAWNPFRSKLAAAILGGVDQIHIKPGAKVLYLGAASGTTVSHVSDIVGPDGLVYAVEFSHRSGRDLINLAKKRTNIIPVIEDARHPHKYRMLIAMVDVIFADVAQPDQTRIVALNAHTFLRNGGHFVISIKANCIDSTASAEAVFASEVKKMQQENMKPQEQLTLEPYERDHAVVVGVYRPPPKVKN
B2: rRNA methyltransferase Nucleolar Protein 2 Homolog (NOP2) (protein, UniProt P46087 1-812)
chain: MGRKLDPTKEKRGPGRKARKQKGAETELVRFLPAVSDENSKRLSSRARKRAAKRRLGSVEAPKTNKSPEAKPLPGKLPKGISAGAVQTAGKKGPQSLFNAPRGKKRPAPGSDEEEEEEDSEEDGMVNHGDLWGSEDDADTVDDYGADSNSEDEEEGEALLPIERAARKQKAREAAAGIQWSEEETEDEEEEKEVTPESGPPKVEEADGGLQINVDEEPFVLPPAGEMEQDAQAPDLQRVHKRIQDIVGILRDFGAQREEGRSRSEYLNRLKKDLAIYYSYGDFLLGKLMDLFPLSELVEFLEANEVPRPVTLRTNTLKTRRRDLAQALINRGVNLDPLGKWSKTGLVVYDSSVPIGATPEYLAGHYMLQGASSMLPVMALAPQEHERILDMCCAPGGKTSYMAQLMKNTGVILANDANAERLKSVVGNLHRLGVTNTIISHYDGRQFPKVVGGFDRVLLDAPCSGTGVISKDPAVKTNKDEKDILRCAHLQKELLLSAIDSVNATSKTGGYLVYCTCSITVEENEWVVDYALKKRNVRLVPTGLDFGQEGFTRFRERRFHPSLRSTRRFYPHTHNMDGFFIAKFKKFSNSIPQSQTGNSETATPTNVDLPQVIPKSENSSQPAKKAKGAAKTKQQLQKQQHPKKASFQKLNGISKGADSELSTVPSVTKTQASSSFQDSSQPAGKAEGIREPKVTGKLKQRSPKLQSSKKVAFLRQNAPPKGTDTQTPAVLSPSKTQATLKPKDHHQPLGRAKGVEKQQLPEQPFEKAAFQKQNDTPKGPQPPTVSPIRSSRPPPAKRKKSQSRGNSQLLLS

Molecular target: T1, endogenous AATF (human (endogenous in HEK 293T)) (UniProt Q9NY61)
T1 sequence: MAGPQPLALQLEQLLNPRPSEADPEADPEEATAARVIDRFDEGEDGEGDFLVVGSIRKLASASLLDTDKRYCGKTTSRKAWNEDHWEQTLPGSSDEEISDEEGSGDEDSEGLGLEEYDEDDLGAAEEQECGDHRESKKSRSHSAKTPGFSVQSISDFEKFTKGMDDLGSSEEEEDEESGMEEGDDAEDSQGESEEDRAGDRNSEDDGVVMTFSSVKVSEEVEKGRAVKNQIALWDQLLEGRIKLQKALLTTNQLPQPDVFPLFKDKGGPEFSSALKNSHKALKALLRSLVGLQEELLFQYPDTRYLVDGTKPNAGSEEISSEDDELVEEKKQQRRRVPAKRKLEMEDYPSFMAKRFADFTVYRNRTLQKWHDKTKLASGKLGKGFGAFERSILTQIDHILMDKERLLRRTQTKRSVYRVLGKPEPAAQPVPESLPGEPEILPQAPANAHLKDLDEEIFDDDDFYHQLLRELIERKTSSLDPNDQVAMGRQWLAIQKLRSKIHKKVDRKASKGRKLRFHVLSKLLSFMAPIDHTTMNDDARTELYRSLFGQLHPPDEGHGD
Assay: co-IP; endogenous AATF precipitated with anti-AATF antibody on Protein G Dynabeads from HEK 293T lysate (modified RIPA buffer, Turbo DNase treated), overnight; rabbit IgG as negative control; western blot; 3 biological replicates

binding, binds:
ribosome biogenesis factor HEAT Repeat-Containing Protein 1 (HEATR1) (from UniProt Q9H583 1-2144), B1, B2
